# Experimental data published in the supplement of paper PMC8728848.
# This is one part of the list.
# Columns and labels:
# Assay in all cases: glycan array binding signal (z-score within array); higher = stronger binding
# Settings in all cases: glycan notation: IUPAC condensed, linker removed
# [1] = biological target: Neu5Ac(a2-6)Gal(b1-4)GlcNAc(b1-2)Man(a1-6)[Man(a1-3)]Man(b1-4)GlcNAc(b1-4)GlcNAc
# In short: (§1)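 Glycan array binding is given as a within-array Z-score, which can be read as non-binding when negative. The arrays, 3228 of them, came from the Consortium for Functional Glycomics database and were retained only where the protein sequence was available. Z-scores were averaged across arrays of the same protein sequence at different concentrations or buffers and across linkers.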
# [2] = biological target: Neu5Ac(a2-6)Gal(b1-4)GlcNAc(b1-2)[Neu5Ac(a2-6)Gal(b1-4)GlcNAc(b1-4)]Man(a1-3)[GlcNAc(b1-4)][Neu5Ac(a2-6)Gal(b1-4)GlcNAc(b1-2)[Neu5Ac(a2-6)Gal(b1-4)GlcNAc(b1-6)]Man(a1-6)]Man(b1-4)GlcNAc(b1-4)GlcNAc
# In short: as §1
# [3] = biological target: Neu5Ac(a2-6)Gal(b1-4)GlcNAc(b1-2)[Neu5Ac(a2-6)Gal(b1-4)GlcNAc(b1-4)]Man(a1-3)[GlcNAc(b1-4)][Neu5Ac(a2-6)Gal(b1-4)GlcNAc(b1-4)Man(a1-6)]Man(b1-4)GlcNAc(b1-4)GlcNAc
# In short: as §1
# [4] = biological target: Neu5Ac(a2-6)Gal(b1-4)GlcNAc(b1-2)[Neu5Ac(a2-6)Gal(b1-4)GlcNAc(b1-6)]Man(a1-6)[Neu5Ac(a2-6)Gal(b1-4)GlcNAc(b1-2)Man(a1-3)][GlcNAc(b1-4)]Man(b1-4)GlcNAc(b1-4)GlcNAc
# In short: as §1
# [5] = biological target: Neu5Ac(a2-6)Gal(b1-4)GlcNAc(b1-3)Gal(b1-3)GlcNAc
# In short: as §1
# [6] = biological target: Neu5Ac(a2-6)Gal(b1-4)GlcNAc(b1-3)Gal(b1-4)GlcNAc
# In short: as §1
# [7] = biological target: Neu5Ac(a2-6)Gal(b1-4)GlcNAc(b1-3)Gal(b1-4)GlcNAc(b1-2)Man(a1-3)[Neu5Ac(a2-6)Gal(b1-4)GlcNAc(b1-3)Gal(b1-4)GlcNAc(b1-2)Man(a1-6)]GalNAc
# In short: as §1
# [8] = biological target: Neu5Ac(a2-6)Gal(b1-4)GlcNAc(b1-3)Gal(b1-4)GlcNAc(b1-3)Gal(b1-4)GlcNAc
# In short: as §1
# [9] = biological target: Neu5Ac(a2-6)Gal(b1-4)GlcNAc(b1-3)Gal(b1-4)GlcNAc(b1-3)Gal(b1-4)GlcNAc(b1-2)Man(a1-3)[Neu5Ac(a2-6)Gal(b1-4)GlcNAc(b1-3)Gal(b1-4)GlcNAc(b1-3)Gal(b1-4)GlcNAc(b1-2)Man(a1-6)]GalNAc
# In short: as §1
# [10] = biological target: Neu5Ac(a2-6)Gal(b1-4)GlcNAc(b1-3)Gal(b1-4)GlcNAc(b1-3)GalNAc
# In short: as §1
# [11] = biological target: Neu5Ac(a2-6)Gal(b1-4)GlcNAc(b1-3)Gal(b1-4)GlcNAc(b1-3)[Neu5Ac(a2-6)Gal(b1-4)GlcNAc(b1-3)Gal(b1-4)GlcNAc(b1-6)]GalNAc
# In short: as §1
# [12] = biological target: Neu5Ac(a2-6)Gal(b1-4)GlcNAc(b1-3)Gal(b1-4)GlcNAc(b1-6)[Gal(b1-3)]GalNAc
# In short: as §1
# [13] = biological target: Neu5Ac(a2-6)Gal(b1-4)GlcNAc(b1-3)Gal(b1-4)[Fuc(a1-3)]GlcNAc(b1-3)Gal(b1-4)[Fuc(a1-3)]GlcNAc
# In short: as §1
# [14] = biological target: Neu5Ac(a2-6)Gal(b1-4)GlcNAc(b1-3)GalNAc
# In short: as §1
# [15] = biological target: Neu5Ac(a2-6)Gal(b1-4)GlcNAc(b1-3)[Neu5Ac(a2-6)Gal(b1-4)GlcNAc(b1-6)]GalNAc
# In short: as §1
# [16] = biological target: Neu5Ac(a2-6)Gal(b1-4)GlcNAc(b1-6)GalNAc
# In short: as §1
# [17] = biological target: Neu5Ac(a2-6)Gal(b1-4)GlcNAc(b1-6)[Gal(b1-3)GlcNAc(b1-3)]Gal(b1-4)Glc
# In short: as §1
# [18] = biological target: Neu5Ac(a2-6)Gal(b1-4)GlcNAc(b1-6)[Gal(b1-3)]GalNAc
# In short: as §1
# [19] = biological target: Neu5Ac(a2-6)Gal(b1-4)GlcNAc6S
# In short: as §1
# Neu5Ac(a2-6)GalNAc = biological target: Neu5Ac(a2-6)GalNAc
# In short: as §1
# [20] = biological target: Neu5Ac(a2-6)GalNAc(b1-4)GlcNAc
# In short: as §1
# [21] = biological target: Neu5Ac(a2-6)GalNAc(b1-4)GlcNAc6S
# In short: as §1
# [22] = biological target: Neu5Ac(a2-6)GlcNAc(b1-4)GlcNAc
# In short: as §1
# [23] = biological target: Neu5Ac(a2-6)GlcNAc(b1-4)GlcNAc(b1-4)GlcNAc
# In short: as §1
# Neu5Ac(a2-8)Neu5Ac = biological target: Neu5Ac(a2-8)Neu5Ac
# In short: as §1
# [24] = biological target: Neu5Ac(a2-8)Neu5Ac(a2-3)Gal(b1-3)GalNAc(b1-4)[Neu5Ac(a2-3)]Gal(b1-4)Glc
# In short: as §1
# [25] = biological target: Neu5Ac(a2-8)Neu5Ac(a2-3)Gal(b1-3)GalNAc(b1-4)[Neu5Ac(a2-8)Neu5Ac(a2-3)]Gal(b1-4)Glc
# In short: as §1
# [26] = biological target: Neu5Ac(a2-8)Neu5Ac(a2-3)Gal(b1-4)Glc
# In short: as §1
# [27] = biological target: Neu5Ac(a2-8)Neu5Ac(a2-3)Gal(b1-4)GlcNAc
# In short: as §1
# [28] = biological target: Neu5Ac(a2-8)Neu5Ac(a2-3)[Gal(b1-3)GalNAc(b1-4)]Gal(b1-4)Glc
# In short: as §1
# [29] = biological target: Neu5Ac(a2-8)Neu5Ac(a2-3)[GalNAc(b1-4)]Gal(b1-4)Glc
# In short: as §1
# [30] = biological target: Neu5Ac(a2-8)Neu5Ac(a2-8)Neu5Ac
# In short: as §1
# [31] = biological target: Neu5Ac(a2-8)Neu5Ac(a2-8)Neu5Ac(a2-3)Gal(b1-4)Glc
# In short: as §1
# [32] = biological target: Neu5Ac(a2-8)Neu5Ac(a2-8)Neu5Ac(a2-3)[Gal(b1-3)GalNAc(b1-4)]Gal(b1-4)Glc
# In short: as §1
# [33] = biological target: Neu5Ac(a2-8)Neu5Ac(a2-8)Neu5Ac(a2-3)[GalNAc(b1-4)]Gal(b1-4)Glc
# In short: as §1
# [34] = biological target: Neu5Ac(a2-8)Neu5Ac(a2-8)Neu5Ac(a2-8)Neu5Ac(a2-3)[GalNAc(b1-4)]Gal(b1-4)Glc
# In short: as §1
# [35] = biological target: Neu5Ac(a2-8)Neu5Gc(a2-3)Gal(b1-4)GlcNAc
# In short: as §1
# [36] = biological target: Neu5Ac(b2-6)Gal(b1-4)GlcNAc
# In short: as §1
# Neu5Ac(b2-6)GalNAc = biological target: Neu5Ac(b2-6)GalNAc
# In short: as §1
# [37] = biological target: Neu5Ac9Ac(a2-3)Gal(b1-3)GlcNAc
# In short: as §1
# [38] = biological target: Neu5Ac9Ac(a2-3)Gal(b1-4)GlcNAc
# In short: as §1
# [39] = biological target: Neu5Ac9Ac(a2-6)Gal(b1-4)GlcNAc
# In short: as §1
# [40] = biological target: Neu5Gc(a2-3)Gal(b1-3)GlcNAc
# In short: as §1
# [41] = biological target: Neu5Gc(a2-3)Gal(b1-3)[Fuc(a1-4)]GlcNAc
# In short: as §1
# Neu5Gc(a2-3)Gal(b1-4)Glc = biological target: Neu5Gc(a2-3)Gal(b1-4)Glc
# In short: as §1
# [42] = biological target: Neu5Gc(a2-3)Gal(b1-4)GlcNAc
# In short: as §1
# [43] = biological target: Neu5Gc(a2-3)Gal(b1-4)GlcNAc(b1-3)Gal(b1-4)GlcNAc(b1-2)Man(a1-3)[Neu5Gc(a2-3)Gal(b1-4)GlcNAc(b1-3)Gal(b1-4)GlcNAc(b1-2)Man(a1-6)]Man(b1-4)GlcNAc(b1-4)GlcNAc
# In short: as §1
# [44] = biological target: Neu5Gc(a2-3)Gal(b1-4)[Fuc(a1-3)]GlcNAc
# In short: as §1
# [45] = biological target: Neu5Gc(a2-6)Gal(b1-4)GlcNAc
# In short: as §1
# Neu5Gc(a2-6)GalNAc = biological target: Neu5Gc(a2-6)GalNAc
# In short: as §1
# [46] = biological target: Neu5Gc(a2-8)Neu5Ac(a2-3)Gal(b1-4)GlcNAc
# In short: as §1
# [47] = biological target: Neu5Gc(a2-8)Neu5Gc(a2-3)Gal(b1-4)GlcNAc
# In short: as §1
# [48] = biological target: Neu5Gc(a2-8)Neu5Gc(a2-3)Gal(b1-4)GlcNAc(b1-3)Gal(b1-4)GlcNAc
# In short: as §1
# [49] = biological target: Neu5Gc(a2-8)Neu5Gc(a2-6)Gal(b1-4)GlcNAc
# In short: as §1
# [50] = biological target: Neu5Gc(b2-6)Gal(b1-4)GlcNAc
# In short: as §1
binder,measurement,setting,value
"BabA (Helicobacter pylori), O52269_HELPY (protein) AEDDGFYMSAGYQIGEAAQMVKNTKGIQELSDNYENLSNLLTRYSTLNTLIKLSADPSAVNAARENLGASAKNLIGDTKNSPAYQAVLLAINAAVGFWNVVGYVTQCGGNANGQKSTSSTTIFNNEPGYRSTSITCSLNGHMPGYYGPMSIENFKKLNEAYQILQTALKNGLPALKENNGTVNVTYSYTCSGEGNDNCSLQTTGVTNQNNGTKTETQTIDGKSVTTTISSKVVDSQ",glycan array binding signal (z-score),[1],-0.116
same,glycan array binding signal (z-score),[2],-0.537
same,glycan array binding signal (z-score),[3],-0.618
same,glycan array binding signal (z-score),[4],-0.482
same,glycan array binding signal (z-score),[5],-0.743
same,glycan array binding signal (z-score),[6],-0.4
same,glycan array binding signal (z-score),[7],0.472
same,glycan array binding signal (z-score),[8],-0.817
same,glycan array binding signal (z-score),[9],5.39
same,glycan array binding signal (z-score),[10],-0.682
same,glycan array binding signal (z-score),[11],2.44
same,glycan array binding signal (z-score),[12],-0.845
same,glycan array binding signal (z-score),[13],-0.817
same,glycan array binding signal (z-score),[14],-0.406
same,glycan array binding signal (z-score),[15],-0.5
same,glycan array binding signal (z-score),[16],0.09
same,glycan array binding signal (z-score),[17],-0.437
same,glycan array binding signal (z-score),[18],-0.555
same,glycan array binding signal (z-score),[19],-0.106
same,glycan array binding signal (z-score),Neu5Ac(a2-6)GalNAc,0.571
same,glycan array binding signal (z-score),[20],-0.673
same,glycan array binding signal (z-score),[21],-0.637
same,glycan array binding signal (z-score),[22],-0.284
same,glycan array binding signal (z-score),[23],0.529
same,glycan array binding signal (z-score),Neu5Ac(a2-8)Neu5Ac,-0.103
same,glycan array binding signal (z-score),[24],-0.518
same,glycan array binding signal (z-score),[25],0.235
same,glycan array binding signal (z-score),[26],0.012
same,glycan array binding signal (z-score),[27],-0.8
same,glycan array binding signal (z-score),[28],-0.246
same,glycan array binding signal (z-score),[29],-0.258
same,glycan array binding signal (z-score),[30],-0.163
same,glycan array binding signal (z-score),[31],-0.593
same,glycan array binding signal (z-score),[32],0.344
same,glycan array binding signal (z-score),[33],-0.552
same,glycan array binding signal (z-score),[34],-0.397
same,glycan array binding signal (z-score),[35],-0.845
same,glycan array binding signal (z-score),[36],-0.719
same,glycan array binding signal (z-score),Neu5Ac(b2-6)GalNAc,-0.626
same,glycan array binding signal (z-score),[37],-0.068
same,glycan array binding signal (z-score),[38],0.252
same,glycan array binding signal (z-score),[39],-0.224
same,glycan array binding signal (z-score),[40],0.13
same,glycan array binding signal (z-score),[41],-0.638
same,glycan array binding signal (z-score),Neu5Gc(a2-3)Gal(b1-4)Glc,-0.204
same,glycan array binding signal (z-score),[42],0.094
same,glycan array binding signal (z-score),[43],1.27
same,glycan array binding signal (z-score),[44],-0.235
same,glycan array binding signal (z-score),[45],-0.144
same,glycan array binding signal (z-score),Neu5Gc(a2-6)GalNAc,0.164
same,glycan array binding signal (z-score),[46],-0.773
same,glycan array binding signal (z-score),[47],-0.709
same,glycan array binding signal (z-score),[48],-0.736
same,glycan array binding signal (z-score),[49],-0.546
same,glycan array binding signal (z-score),[50],-0.522

# Some of the entries so far, with tabs.
binder	measurement	setting	value
BabA (Helicobacter pylori), O52269_HELPY (protein) AEDDGFYMSAGYQIGEAAQMVKNTKGIQELSDNYENLSNLLTRYSTLNTLIKLSADPSAVNAARENLGASAKNLIGDTKNSPAYQAVLLAINAAVGFWNVVGYVTQCGGNANGQKSTSSTTIFNNEPGYRSTSITCSLNGHMPGYYGPMSIENFKKLNEAYQILQTALKNGLPALKENNGTVNVTYSYTCSGEGNDNCSLQTTGVTNQNNGTKTETQTIDGKSVTTTISSKVVDSQ	glycan array binding signal (z-score)	[2]	-0.537
same	glycan array binding signal (z-score)	[28]	-0.246
same	glycan array binding signal (z-score)	[31]	-0.593
same	glycan array binding signal (z-score)	[37]	-0.068
